Results: PMC4897736, “Structural and biochemical characterization of the cell fate determining nucleotidyltransferase fold protein MAB21L1” (Scientific Reports, 2016)
Construct, isoform or probe ends are uncertain for at least one entry. At least one verdict was read from the data and is not stated in words by the source.

Test system: cGAS
Experiment: EMSA
Settings: higher affinity than MAB21L1; EMSA: 20 mM Tris pH 8.0, 200 mM NaCl, 30 min on ice, 1% agarose gel, Gel-Red stain; recombinant protein; label: none (Gel-Red stain)

GGATACGTAACAACGCTTATGCATCGCCCCGCTACATCCCTGAGCTGAC (double strand) [50mer dsDNA]
binding result: binds
